In article PMC9817759:
Results are given in words; binding and its absence hold for the method and conditions named. For some assays here: Binding seen in cells or lysates may run through a third protein. Some binding calls cover weakened binding; strength is not graded here.

The chains behind the UniProt entries cited, without tags or fusion partners.
UniProt Q00987: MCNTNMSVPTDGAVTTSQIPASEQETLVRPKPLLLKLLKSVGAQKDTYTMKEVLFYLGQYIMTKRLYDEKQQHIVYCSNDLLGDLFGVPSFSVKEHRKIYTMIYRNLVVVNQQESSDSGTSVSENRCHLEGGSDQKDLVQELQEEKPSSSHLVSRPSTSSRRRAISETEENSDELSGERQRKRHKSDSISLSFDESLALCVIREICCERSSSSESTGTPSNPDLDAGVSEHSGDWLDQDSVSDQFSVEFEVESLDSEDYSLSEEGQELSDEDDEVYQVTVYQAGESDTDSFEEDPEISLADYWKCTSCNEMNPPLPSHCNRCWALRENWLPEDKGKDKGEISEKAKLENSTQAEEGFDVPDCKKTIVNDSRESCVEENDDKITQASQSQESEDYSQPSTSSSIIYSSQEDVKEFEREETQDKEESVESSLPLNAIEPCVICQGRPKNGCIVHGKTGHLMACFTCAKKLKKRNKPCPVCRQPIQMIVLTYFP
UniProt Q15418: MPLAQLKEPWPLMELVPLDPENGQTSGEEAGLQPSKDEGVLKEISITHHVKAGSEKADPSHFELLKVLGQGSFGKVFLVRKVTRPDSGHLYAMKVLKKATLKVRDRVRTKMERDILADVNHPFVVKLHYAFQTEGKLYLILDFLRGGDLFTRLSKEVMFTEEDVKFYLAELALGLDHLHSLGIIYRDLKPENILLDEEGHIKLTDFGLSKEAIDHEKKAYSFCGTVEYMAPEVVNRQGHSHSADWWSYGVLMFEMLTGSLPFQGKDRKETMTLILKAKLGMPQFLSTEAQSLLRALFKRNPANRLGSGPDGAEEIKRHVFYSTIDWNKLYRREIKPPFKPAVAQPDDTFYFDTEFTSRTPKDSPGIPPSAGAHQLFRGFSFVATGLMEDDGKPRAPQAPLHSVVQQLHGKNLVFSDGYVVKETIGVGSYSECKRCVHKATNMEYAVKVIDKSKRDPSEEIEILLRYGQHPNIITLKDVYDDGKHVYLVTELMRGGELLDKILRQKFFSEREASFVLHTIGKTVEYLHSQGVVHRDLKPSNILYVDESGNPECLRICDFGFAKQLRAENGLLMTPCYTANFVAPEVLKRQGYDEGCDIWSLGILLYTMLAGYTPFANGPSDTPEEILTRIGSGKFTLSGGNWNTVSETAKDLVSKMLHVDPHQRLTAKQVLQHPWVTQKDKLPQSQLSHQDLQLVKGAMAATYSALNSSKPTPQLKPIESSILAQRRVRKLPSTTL
UniProt P51812: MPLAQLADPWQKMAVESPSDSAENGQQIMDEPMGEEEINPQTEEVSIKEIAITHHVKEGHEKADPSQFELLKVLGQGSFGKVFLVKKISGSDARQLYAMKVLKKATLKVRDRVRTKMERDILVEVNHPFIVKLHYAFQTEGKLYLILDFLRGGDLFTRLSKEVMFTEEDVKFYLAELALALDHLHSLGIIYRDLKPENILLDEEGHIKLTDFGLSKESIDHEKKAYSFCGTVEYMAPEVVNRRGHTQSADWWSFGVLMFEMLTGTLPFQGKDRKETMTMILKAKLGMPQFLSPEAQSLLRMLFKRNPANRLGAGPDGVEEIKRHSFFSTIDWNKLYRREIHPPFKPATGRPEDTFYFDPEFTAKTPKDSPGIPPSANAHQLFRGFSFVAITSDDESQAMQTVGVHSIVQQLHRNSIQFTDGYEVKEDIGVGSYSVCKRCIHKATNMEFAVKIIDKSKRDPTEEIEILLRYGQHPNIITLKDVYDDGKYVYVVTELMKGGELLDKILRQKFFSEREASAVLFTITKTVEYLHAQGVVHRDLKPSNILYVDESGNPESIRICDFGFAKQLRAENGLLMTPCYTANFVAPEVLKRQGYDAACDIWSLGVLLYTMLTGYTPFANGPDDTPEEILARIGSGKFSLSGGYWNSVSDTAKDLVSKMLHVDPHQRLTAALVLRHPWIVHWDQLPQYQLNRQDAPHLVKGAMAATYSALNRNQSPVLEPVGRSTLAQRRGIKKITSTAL

Assays:
[1] = molecular target: endogenous MDM2 of HEK293 cells (human (endogenous in HEK293)) (UniProt Q00987); assay: co-IP; HEK293 cells transfected with constitutively active myristylated RSK1 or RSK2; lysate immunoprecipitated with anti-MDM2, blotted with anti-RSK1 and anti-RSK2
[2] = molecular target: Recombinant Human GST MDM2/HDM2 (BostonBiochem cat. E3-202) (human) (UniProt Q00987); assay: co-IP; recombinant RSK1 and MDM2 mixed in vitro; immunoprecipitated with anti-RSK1 or anti-MDM2, blotted with anti-MDM2 and anti-RSK1; with or without BI-D1870 (1 and 5 µM); both purified
[3] = molecular target: endogenous MDM2 of TPC1 and other thyroid tumor cell lines (human (endogenous in TPC1)) (UniProt Q00987); assay: co-IP; experiments of TPC1 repeated in other thyroid tumor lines (CAL62, BCPAP, SW1736, 8505C); supplementary Figures S1 and S2
[4] = molecular target: endogenous MDM2 of TPC1 and other thyroid tumor cell lines (human (endogenous in TPC1)) (UniProt Q00987); assay: co-IP; endogenous proteins of TPC1 cells; immunoprecipitated with anti-RSK1 or anti-MDM2, control IgG lane; also cells treated for 1 h with BI-D1870 (4, 10 µM)
[5] = molecular target: endogenous p90RSK (RSK1) of TPC1 and other thyroid tumor cell lines (human (endogenous in TPC1)) (UniProt Q15418); assay: co-IP; experiments of TPC1 repeated in other thyroid tumor lines (CAL62, BCPAP, SW1736, 8505C); supplementary Figures S1 and S2
[6] = molecular target: endogenous p90RSK (RSK1) of TPC1 and other thyroid tumor cell lines (human (endogenous in TPC1)) (UniProt Q15418); assay: co-IP; endogenous proteins of TPC1 cells; immunoprecipitated with anti-RSK1 or anti-MDM2, control IgG lane; also cells treated for 1 h with BI-D1870 (4, 10 µM)
[7] = molecular target: active recombinant p90RSK1 (RSK active, SignalChem cat. R15-10G) (UniProt Q15418); assay: co-IP; recombinant RSK1 and MDM2 mixed in vitro; immunoprecipitated with anti-RSK1 or anti-MDM2, blotted with anti-MDM2 and anti-RSK1; with or without BI-D1870 (1 and 5 µM); both purified

constitutively active myristilated RSK1 (p90RSK1 in the pRK7-myr expression vector) (from UniProt Q15418 1-735) (enzyme)
binding [1]: binds

active recombinant p90RSK1 (RSK active, SignalChem cat. R15-10G) (from UniProt Q15418 1-735) (enzyme)
binding [2]: binds

endogenous p90RSK (RSK1) of TPC1 and other thyroid tumor cell lines (from UniProt Q15418 1-735) (enzyme)
binding [3]: binds
binding [4]: binds

constitutively active myristilated RSK2 (p90RSK2 in the pWZL-neo-myr-flag expression vector) (from UniProt P51812 1-740) (enzyme)
binding [1]: binds

endogenous MDM2 of TPC1 and other thyroid tumor cell lines (from UniProt Q00987 1-491)
binding [5]: binds
binding [6]: binds

Recombinant Human GST MDM2/HDM2 (BostonBiochem cat. E3-202) (from UniProt Q00987 1-491) (enzyme)
binding [7]: binds
